The values that follow are results of earlier work, collected in article PMC12299926 (Pharmaceuticals, 2025).

The conditions of this series: 16 volunteers; subtherapeutic doses with propolis (375 mg/day); ref [21]; cited from earlier work.

Take `CC(C)(C(=O)O)c1ccc(C(O)CCCN2CCC(C(O)(c3ccccc3)c3ccccc3)CC2)cc1` (stereo not shown) [fexofenadine]: the “change of AUC with propolis” value is recorded as “decreased”.
